PubChem BioAssay AID1259254 | NCATS | 2017
The deposit covers about 59,000 reagents; shown is a part drawn at random. In the full data, about 1,550 (2.6%) are marked active. 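G2 share is only a proxy for re-replication; each gene was hit by three separate siRNAs, and active genes were retested.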 A number with no mark means an inactive call. The numbers tell different reagents against one gene apart. Not all columns of the deposit are shown. The record does not give: the amount of reagent.

- Screen: 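Gene knock-downs that lead to re-replication, shown by excess G2 DNA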 (primary screen)
- System: human HCT116 colorectal cancer cells
- Knock-down reagent: single siRNA against human genes
- Time to read-out: 3 days
- Measurement: 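Imaged Hoechst DNA stain sorts each cell into a cycle phase by DNA amount; per plate, G2 fraction set to 0% for non-targeting and 100% for GMNN siRNA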
- Scale: G2 robust z-score: higher = more G2 cells, more excess DNA replication
- Active means: 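An siRNA counts as active if its G2 robust z-score lies at least 5 MADs above the screen median; here such calls match roughly 38% of GMNN control or more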

TAB1 (TGF-beta activated kinase 1 (MAP3K7) binding protein 1) #1 gave G2 robust z-score 0.982.
TAB1 (TGF-beta activated kinase 1 (MAP3K7) binding protein 1) #2 scored G2 robust z-score -0.316.
For TAB1 (TGF-beta activated kinase 1 (MAP3K7) binding protein 1) #3, the values are G2 robust z-score 0.967.
After knock-down of SPRYD7 (SPRY domain containing 7) #1, the screen gave G2 robust z-score -0.0292.
For SPRYD7 (SPRY domain containing 7) #2 the deposit lists G2 robust z-score -1.36.
SPRYD7 (SPRY domain containing 7) #3 showed G2 robust z-score 0.654.
THRA (thyroid hormone receptor alpha) #1 gave G2 robust z-score -0.017.
Against THRA (thyroid hormone receptor alpha) #2 the deposit lists G2 robust z-score -0.411.
THRA (thyroid hormone receptor alpha) #3 scored G2 robust z-score -0.968.
With knock-down of SPANXN5 (SPANX family member N5) #1, the record shows G2 robust z-score -0.422.
SPANXN5 (SPANX family member N5) #2 gave G2 robust z-score -0.874.
With knock-down of SPANXN5 (SPANX family member N5) #3 the results were G2 robust z-score 0.711.

Looked up above.
Entry for THRA (thyroid hormone receptor alpha) #3 in “G2 robust z-score”: -0.968
Value for TAB1 (TGF-beta activated kinase 1 (MAP3K7) binding protein 1) #2 in “G2 robust z-score”: -0.316
